The exact form of at least one protein or probe is not confirmed. A negative result means that nothing was seen under these conditions.
Each sequence was assayed on BpERF2 (MBP-ERF2) (assay: EMSA). Settings: Chemiluminescent EMSA kit (Beyotime); binding buffer, pH and temperature not stated; self-competitor at 20, 50, 100-fold excess; recombinant protein; protein details: MBP (N-terminal, pMAL-5); label: biotin.

Q: Does “GGCGGCCCCAGCCTTCCCAGCCTTCCCAGCCG / GCGGCGGCTGGGAAGGCTGGGAAGGCTGGGG [Motif6 probe]” bind?
A: binds

Q: Does “GGCGGCAAAAAAATTAAAAAAATTAAAAAAAG / GCGGCTTTTTTTAATTTTTTTAATTTTTTTG [mutant probe]” bind?
A: no binding

Q: Does “GGCGGCGGGCGGATTGGGCGGATTGGGCGGAG / GCGGCTCCGCCCAATCCGCCCAATCCGCCCG [Motif7 probe]” bind?
A: binds

Q: Does “GGCGGCGCGGCGCTTGCGGCGCTTGCGGCGCG / GCGGCGCGCCGCAAGCGCCGCAAGCGCCGCG [Motif3 probe]” bind?
A: binds

Q: Does “GGCGGCACCACAGTTACCACAGTTACCACAGG / GCGGCCTGTGGTAACTGTGGTAACTGTGGTG [Motif5 probe]” bind?
A: binds

Q: Does “GGCGGCCCCTCCCTTCCCTCCCTTCCCTCCCG / GCGGCGGGAGGGAAGGGAGGGAAGGGAGGGG [Motif1 probe]” bind?
A: binds

Q: Does “GGCGGCCAGGAGATTCAGGAGATTCAGGAGAG / GCGGCTCTCCTGAATCTCCTGAATCTCCTGG [Motif2 probe]” bind?
A: binds

Q: Does “GGCGGCACAGAGTTACAGAGTTACAGAGG / GCGGCCTCTGTAACTCTGTAACTCTGTG [Motif8 probe]” bind?
A: binds

Q: Does “GGCGGCGCCCACCTTGCCCACCTTGCCCACCG / GCGGCGGTGGGCAAGGTGGGCAAGGTGGGCG [Motif4 probe]” bind?
A: binds

Source: article PMC10158250
